Experimental data published in paper PMC4200280.

By UniProt entry, the sequences of proteins in these tests, tags left out.
UniProt P15790: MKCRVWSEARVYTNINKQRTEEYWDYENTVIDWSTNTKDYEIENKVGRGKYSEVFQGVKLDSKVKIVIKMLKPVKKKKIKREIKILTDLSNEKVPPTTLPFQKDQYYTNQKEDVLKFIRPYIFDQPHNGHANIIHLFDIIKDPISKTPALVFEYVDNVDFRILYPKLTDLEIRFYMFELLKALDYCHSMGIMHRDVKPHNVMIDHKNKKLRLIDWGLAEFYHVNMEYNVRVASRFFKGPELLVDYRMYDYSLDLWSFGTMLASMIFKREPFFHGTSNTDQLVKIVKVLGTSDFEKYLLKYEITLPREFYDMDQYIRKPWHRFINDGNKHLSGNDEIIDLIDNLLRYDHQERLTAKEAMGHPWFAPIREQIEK

T1: Psh1-TAP (budding yeast) (UniProt Q12161)
T1 sequence: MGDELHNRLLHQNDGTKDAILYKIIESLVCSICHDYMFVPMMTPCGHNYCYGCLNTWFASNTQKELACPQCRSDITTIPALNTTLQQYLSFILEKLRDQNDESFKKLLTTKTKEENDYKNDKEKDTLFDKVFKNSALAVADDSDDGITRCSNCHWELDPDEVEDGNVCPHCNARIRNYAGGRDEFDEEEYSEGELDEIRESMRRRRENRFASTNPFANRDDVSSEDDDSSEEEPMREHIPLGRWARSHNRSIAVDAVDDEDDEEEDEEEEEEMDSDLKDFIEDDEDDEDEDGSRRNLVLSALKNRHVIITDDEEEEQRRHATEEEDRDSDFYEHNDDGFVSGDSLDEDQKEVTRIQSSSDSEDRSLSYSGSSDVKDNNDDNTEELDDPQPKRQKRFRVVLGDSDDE

T2: Dsn1-FLAG (budding yeast) (UniProt P40568)
T2 sequence: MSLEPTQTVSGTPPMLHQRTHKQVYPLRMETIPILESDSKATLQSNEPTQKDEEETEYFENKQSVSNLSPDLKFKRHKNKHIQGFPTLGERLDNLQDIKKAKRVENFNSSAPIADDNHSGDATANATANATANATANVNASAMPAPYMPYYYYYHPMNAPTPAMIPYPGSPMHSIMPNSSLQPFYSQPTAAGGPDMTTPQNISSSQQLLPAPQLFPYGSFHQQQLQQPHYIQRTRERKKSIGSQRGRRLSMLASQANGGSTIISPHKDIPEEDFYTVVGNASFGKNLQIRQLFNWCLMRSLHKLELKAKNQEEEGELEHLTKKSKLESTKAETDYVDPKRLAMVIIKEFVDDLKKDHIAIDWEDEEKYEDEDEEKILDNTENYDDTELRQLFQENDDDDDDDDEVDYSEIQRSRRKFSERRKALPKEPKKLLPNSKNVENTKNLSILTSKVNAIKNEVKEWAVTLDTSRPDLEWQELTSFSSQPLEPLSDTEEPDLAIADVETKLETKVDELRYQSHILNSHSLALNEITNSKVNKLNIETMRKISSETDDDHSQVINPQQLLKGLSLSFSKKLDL

B1: Cka2, catalytic subunit of casein kinase 2 (CK2) (enzyme, UniProt P19454 1-339)
chain: MPLPPSTLNQKSNRVYSVARVYKNACEERPQEYWDYEQGVTIDWGKISNYEIINKIGRGKYSEVFSGRCIVNNQKCVIKVLKPVKMKKIYRELKILTNLTGGPNVVGLYDIVQDADSKIPALIFEEIKNVDFRTLYPTFKLPDIQYYFTQLLIALDYCHSMGIMHRDVKPQNVMIDPTERKLRLIDWGLAEFYHPGVDYNVRVASRYHKGPELLVNLNQYDYSLDLWSVGCMLAAIVFKKEPFFKGSSNPDQLVKIATVLGTKELLGYLGKYGLHLPSEYDNIMRDFTKKSWTHFITSETKLAVPEVVDLIDNLLRYDHQERLTAKEAMDHKFFKTKFE
B2: Ckb1, regulatory subunit of casein kinase 2 (CK2) (protein, UniProt P43639 1-278)
chain: MSQEFVEDYSRTGSSDDEDSGAYDEWIPSFCSRFGHEYFCQVPTEFIEDDFNMTSLSQEVPHYRKALDLILDLEAMSDEEEDEDDVVEEDEVDQEMQSNDGHDEGKRRNKSPVVNKSIIEHAAEQLYGLIHARFILTKPGLQAMAEKFDHKEFGTCPRYYCNGMQLLPCGLSDTVGKHTVRLYCPSCQDLYLPQSSRFLCLEGAFWGTSFPGVFLKHFKELEEYVERKSKESYELKVFGFRINDEAVSGPRMKWLRQYPSTEEDWEEFAKCEFETPAV
B3: Ckb2, regulatory subunit of casein kinase 2 (CK2) (protein, UniProt P38930 1-258)
chain: MGSRSENVGTVTREGSRVEQDDVLMDDDSDSSEYVDMWIDLFLGRKGHEYFCDVDPEYITDRFNLMNLQKTVSKFSYVVQYIVDDLDDSILENMTHARLEQLESDSRKLYGLIHARYIITIKGLQKMYAKYKEADFGRCPRVYCNLQQLLPVGLHDIPGIDCVKLYCPSCEDLYIPKSSRHSSIDGAYFGTSFPGMFLQAFPDMVPKHPTKRYVPKIFGFELHKQAQLTRWQELQRLKLVEKLESKDVDLTKSGGFKT
B4: Psh1 (centromere/kinetochore-associated, found in the Dsn1-FLAG purification) (enzyme, UniProt Q12161 1-406)
chain: T1 sequence

Key:
[1] = biological target: T1, Psh1-TAP (budding yeast); experiment: affinity purification with mass spectrometry; Psh1-TAP affinity-purified from yeast (method adopted from Puig et al.), samples analysed by MS
[2] = biological target: T2, Dsn1-FLAG (budding yeast); experiment: affinity purification with mass spectrometry; kinetochore purification by Dsn1-FLAG from WT and cka2Δ yeast (protocol adopted from Akiyoshi et al.), MS analysis

Row | Molecule | binding [1] | binding [2]
1 | Cka1, catalytic subunit of casein kinase 2 (CK2) (from UniProt P15790 1-372) (enzyme) | binds | 
2 | B1 | binds | 
3 | B2 | binds | 
4 | B3 | binds | 
5 | B4 |  | binds

No constants are given. Whether binding was seen depends on the method and setting. Binding seen in cells or lysates may run through a third protein. A yes stands for co-enrichment or nearness to the bait. Other partners may have been found. For some assays here: Tags and fused reporters may be left off the sequences shown.
